# Laboratory results taken from US20060062729A1, “Enhanced ligand binding to neurotensin receptors” (priority 2004, published 2006).
# The chains behind the UniProt entries cited, without tags or fusion partners.
# UniProt P30989, whole entry: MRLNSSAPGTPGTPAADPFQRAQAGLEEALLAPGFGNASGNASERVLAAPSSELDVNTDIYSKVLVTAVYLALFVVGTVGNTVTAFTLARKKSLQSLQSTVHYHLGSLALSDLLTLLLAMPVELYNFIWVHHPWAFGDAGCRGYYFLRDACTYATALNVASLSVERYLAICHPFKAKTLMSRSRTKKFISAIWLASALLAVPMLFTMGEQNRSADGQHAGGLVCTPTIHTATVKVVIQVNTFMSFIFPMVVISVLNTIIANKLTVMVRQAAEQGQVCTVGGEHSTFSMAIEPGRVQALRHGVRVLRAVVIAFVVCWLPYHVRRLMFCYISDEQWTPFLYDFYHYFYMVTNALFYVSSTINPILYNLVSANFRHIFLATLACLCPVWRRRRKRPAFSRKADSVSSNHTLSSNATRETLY
# For at least one compound, name, drawing or mass did not settle the structure. Some entries share one result that the patent states for a list of compounds.
# Biological target: NTR1 (Homo sapiens, UniProt P30989)
# Assay: ^125I-NT binding to PC3 cells
# Conditions: for maximal increase in NT binding to PC3 cells: as much as / up to, dose-response
Compound,maximal increase in NT binding to PC3 cells,further results
"CCCCCC#CCC#CCC#CCC#CCCCC(=O)O [ETYA, 5,8,11,14-eicosatetraynoic acid]",≤ 2.2 fold,–
C[C@@H]1O[C@@H](OC[C@H]2O[C@@H](Oc3c(-c4ccc(O)c(O)c4)oc4cc(O)cc(O)c4c3=O)[C@H](O)[C@@H](O)[C@@H]2O)[C@H](O)[C@H](O)[C@H]1O [rutin],–,"effect on NT binding (used at 10-100 μM, n=3): without effect"
COc1ccc(CCCOC(Cn2ccnc2)c2ccc(OC)cc2)cc1 (centres unmarked) [SKF-96365],up to 2.9 fold,–
COc1ccc2cc1Oc1ccc(cc1)C[C@H]1c3cc(c(OC)cc3CCN1C)Oc1c(OC)c(OC)cc3c1[C@H](C2)N(C)CC3 [tetrandrine],–,effect on NT binding (less specific CCBs): only modest effects
"CC1=C(/C=C/C(C)=C/C=C/C(C)=C/C(=O)O)C(C)(C)CCC1 [Retinoic Acid, retinoic acid]",≤ 2.7 fold,–
